Test results published in doi:10.1101/2022.06.17.496568.
No constants are given. Whether binding was seen depends on the method and setting. Binding seen in cells or lysates may run through a third protein.

By UniProt entry, the sequences of proteins in these tests, tags left out.
UniProt P23242: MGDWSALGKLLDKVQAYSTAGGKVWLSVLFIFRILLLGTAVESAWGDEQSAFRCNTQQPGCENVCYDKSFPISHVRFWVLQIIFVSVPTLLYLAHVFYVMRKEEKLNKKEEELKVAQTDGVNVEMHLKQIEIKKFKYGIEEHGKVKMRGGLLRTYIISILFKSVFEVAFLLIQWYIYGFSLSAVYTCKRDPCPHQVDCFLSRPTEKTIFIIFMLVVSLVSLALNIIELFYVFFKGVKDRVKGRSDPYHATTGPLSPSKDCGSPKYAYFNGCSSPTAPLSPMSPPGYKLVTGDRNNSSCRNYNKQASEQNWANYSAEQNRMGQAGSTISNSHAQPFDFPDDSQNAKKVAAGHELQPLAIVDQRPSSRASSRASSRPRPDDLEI

Target: connexin43 (Gja1) (mouse) (UniProt P23242)
Assay: co-IP

B1: BT-IgSF (brain- and testis-specific Ig superfamily protein) (protein, UniProt P0C673 23-428)
chain: LEVSESPGSVQVARGQTAVLPCAFSTSAALLNLNVIWMVIPLSNANQPEQVILYQGGQMFDGALRFHGRVGFTGTMPATNVSIFINNTQLSDTGTYQCLVNNLPDRGGRNIGVTGLTVLVPPSAPQCQIQGSQDLGSDVILLCSSEEGIPRPTYLWEKLDNTLKLPPTATQDQVQGTVTIRNISALSSGLYQCVASNAIGTSTCLLDLQVISPQPRSVGVIAGAVGTGAVLIVICLALISGAFFYWRSKNKEEEEEEIPNEIREDDLPPKCSSAKAFHTEISSSENNTLTSSNTYNSRYWNNNPKPHRNTESFNHFSDLRQSFSGNAVIPSIYANGNHLVLGPHKTLVVTANRGSSPQVLPRNNGSVSRKPWPQHTHSYTVSQMTLERIGAVPVMVPAQSRAGSLV
binding: no binding
